Data: article PMC11868421
No constants are given. Whether binding was seen depends on the method and setting. Binding seen in cells or lysates may run through a third protein. Some binding calls cover weakened binding; strength is not graded here. Sequences can lack the tags named with a protein. Blank lines part the entries; values can stand above or below the binder they belong to.

The chains behind the UniProt entries cited, without tags or fusion partners.
UniProt O00487: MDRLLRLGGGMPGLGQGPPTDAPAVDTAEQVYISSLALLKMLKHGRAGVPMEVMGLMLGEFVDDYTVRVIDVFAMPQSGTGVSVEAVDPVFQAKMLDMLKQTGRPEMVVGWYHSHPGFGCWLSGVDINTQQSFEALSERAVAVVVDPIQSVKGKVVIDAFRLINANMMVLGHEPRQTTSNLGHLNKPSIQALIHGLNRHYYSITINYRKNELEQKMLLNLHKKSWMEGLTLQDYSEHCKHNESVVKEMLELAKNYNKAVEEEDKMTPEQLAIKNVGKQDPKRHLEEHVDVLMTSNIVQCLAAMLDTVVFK

Target: GFP-PSMD14 (UniProt O00487)
Assay: co-IP; HEK293T cells expressing GFP-PSMD14 transfected with FLAG-tagged full-length or truncated CARM1; lysates immunoprecipitated with anti-GFP antibodies, immunoblotted with anti-FLAG antibodies

binding: binds
B1: FLAG-tagged C-terminal truncated CARM1 (1-453 aa) (domain or fragment, UniProt Q86X55 1-453)
chain: MAAAAAAVGPGAGGAGSAVPGGAGPCATVSVFPGARLLTIGDANGEIQRHAEQQALRLEVRAGPDSAGIALYSHEDVCVFKCSVSRETECSRVGKQSFIITLGCNSVLIQFATPNDFCSFYNILKTCRGHTLERSVFSERTEESSAVQYFQFYGYLSQQQNMMQDYVRTGTYQRAILQNHTDFKDKIVLDVGCGSGILSFFAAQAGARKIYAVEASTMAQHAEVLVKSNNLTDRIVVIPGKVEEVSLPEQVDIIISEPMGYMLFNERMLESYLHAKKYLKPSGNMFPTIGDVHLAPFTDEQLYMEQFTKANFWYQPSFHGVDLSALRGAAVDEYFRQPVVDTFDIRILMAKSVKYTVNFLEAKEGDLHRIEIPFKFHMLHSGLVHGLAFWFDVAFIGSIMTVWLSTAPTEPLTHWYQVRCLFQSPLFAKAGDTLSGTCLLIANKRQSYDISIV

binding: no binding
B2: FLAG-tagged C-terminal truncated CARM1 (1-287 aa) (domain or fragment, UniProt Q86X55 1-287)
chain: MAAAAAAVGPGAGGAGSAVPGGAGPCATVSVFPGARLLTIGDANGEIQRHAEQQALRLEVRAGPDSAGIALYSHEDVCVFKCSVSRETECSRVGKQSFIITLGCNSVLIQFATPNDFCSFYNILKTCRGHTLERSVFSERTEESSAVQYFQFYGYLSQQQNMMQDYVRTGTYQRAILQNHTDFKDKIVLDVGCGSGILSFFAAQAGARKIYAVEASTMAQHAEVLVKSNNLTDRIVVIPGKVEEVSLPEQVDIIISEPMGYMLFNERMLESYLHAKKYLKPSGNMFP
